# This is one part of the list.
# B1: PX14379D-pdi-530-26-530 (Parabacteroides distasonis) (protein)
# chain: DETVYDKLPADDFGQSTAELNALIGNSHNTMKKFWTEYMHLSECSGSMAVTPTRRGGDWYDGGQYREIYMHTWTSQTSRVKSAWKAATEAIGTCNEAIRKLQNSEILTEEEKAQDVADLRGVRAFWIYVMMDYWGNIPLLTEFHPTDKVFPGNSSRQEVFDWLIQEVEEIKDICPPATTENYGSFTQGAAYSLLAKLYLNAEAWGVTFSGNAYQKVIDNCDKVMAMGYILEPNWKDNFSVTNENSKEAILAATFSSSDTGNDGNVKNELHNNTLHYKDYLSLGITASGTWNGICAQPEYVRLFDEEDARLDGTFLTGLMIDKSTGKPIMTDHNNELNHTIDVNMIPGMEYDGTNWSAVEQHDGARCFKWEFASDLTSSMGNDFHIFRLADIYLMKAEALLRGGGSVSEATALVNTIRERGYGNSDHNYATVTLKEVQLERRLELAWEVYSRQDDIRFGCFTTGMWPQSNCERKADDYLKLLPVSQDAWQVNPNLKQNPGYAAFSK
# Experiments:
# Assay in all cases: glycan array binding signal (z-score within array); higher = stronger binding
# Details in all cases: glycan notation: IUPAC condensed, linker removed
# Fuc(a1-2)Gal = molecular target: Fuc(a1-2)Gal
# How it was run: (§1)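 Glycan array data were curated from 3228 arrays in the Consortium for Functional Glycomics database and kept only where the protein sequence was available. Glycan names were converted to IUPAC-condensed notation, and columns mapping to the same glycan were averaged. The binding signal is a within-array Z-score, averaged across arrays of the same protein sequence at different concentrations or buffers and across linkers. Negative Z-scores can be read as non-binding.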
# Fuc(a1-2)Gal(b1-3)GalNAc = molecular target: Fuc(a1-2)Gal(b1-3)GalNAc
# How it was run: as §1
# [1] = molecular target: Fuc(a1-2)Gal(b1-3)GalNAc(a1-3)[Fuc(a1-2)]Gal(b1-4)Glc
# How it was run: as §1
# [2] = molecular target: Fuc(a1-2)Gal(b1-3)GalNAc(a1-3)[Fuc(a1-2)]Gal(b1-4)GlcNAc
# How it was run: as §1
# [3] = molecular target: Fuc(a1-2)Gal(b1-3)GalNAc(b1-3)Gal
# How it was run: as §1
# [4] = molecular target: Fuc(a1-2)Gal(b1-3)GalNAc(b1-3)Gal(a1-4)Gal(b1-4)Glc
# How it was run: as §1
# [5] = molecular target: Fuc(a1-2)Gal(b1-3)GalNAc(b1-4)[Neu5Ac(a2-3)]Gal(b1-4)Glc
# How it was run: as §1
# Fuc(a1-2)Gal(b1-3)GlcNAc = molecular target: Fuc(a1-2)Gal(b1-3)GlcNAc
# How it was run: as §1
# [6] = molecular target: Fuc(a1-2)Gal(b1-3)GlcNAc(b1-2)Man(a1-3)[Fuc(a1-2)Gal(b1-3)GlcNAc(b1-2)Man(a1-6)]Man(b1-4)GlcNAc(b1-4)GlcNAc
# How it was run: as §1
# [7] = molecular target: Fuc(a1-2)Gal(b1-3)GlcNAc(b1-2)Man(a1-3)[Fuc(a1-2)Gal(b1-3)GlcNAc(b1-2)Man(a1-6)]Man(b1-4)GlcNAc(b1-4)[Fuc(a1-6)]GlcNAc
# How it was run: as §1
# [8] = molecular target: Fuc(a1-2)Gal(b1-3)GlcNAc(b1-3)Gal(b1-4)Glc
# How it was run: as §1
# [9] = molecular target: Fuc(a1-2)Gal(b1-3)GlcNAc(b1-3)GalNAc
# How it was run: as §1
# [10] = molecular target: Fuc(a1-2)Gal(b1-3)GlcNAc(b1-3)[Fuc(a1-2)Gal(b1-3)GlcNAc(b1-6)]GalNAc
# How it was run: as §1
# [11] = molecular target: Fuc(a1-2)Gal(b1-3)GlcNAc(b1-3)[Gal(b1-4)GlcNAc(b1-6)]Gal(b1-4)Glc
# How it was run: as §1
# [12] = molecular target: Fuc(a1-2)Gal(b1-3)GlcNAc(b1-3)[Neu5Ac(a2-6)Gal(b1-4)GlcNAc(b1-6)]Gal(b1-4)Glc
# How it was run: as §1
# [13] = molecular target: Fuc(a1-2)Gal(b1-3)GlcNAc6S
# How it was run: as §1
# [14] = molecular target: Fuc(a1-2)Gal(b1-3)[Fuc(a1-4)]GlcNAc
# How it was run: as §1
# [15] = molecular target: Fuc(a1-2)Gal(b1-3)[Fuc(a1-4)]GlcNAc(b1-2)Man(a1-3)[Fuc(a1-2)Gal(b1-3)[Fuc(a1-4)]GlcNAc(b1-2)Man(a1-3)]Man(b1-4)GlcNAc(b1-4)GlcNAc
# How it was run: as §1
# [16] = molecular target: Fuc(a1-2)Gal(b1-3)[Fuc(a1-4)]GlcNAc(b1-2)Man(a1-3)[Fuc(a1-2)Gal(b1-3)[Fuc(a1-4)]GlcNAc(b1-2)Man(a1-6)]Man(b1-4)GlcNAc(b1-4)[Fuc(a1-6)]GlcNAc(b1-4)[Fuc(a1-6)]GlcNAc
# How it was run: as §1
# [17] = molecular target: Fuc(a1-2)Gal(b1-3)[Fuc(a1-4)]GlcNAc(b1-3)[Fuc(a1-3)[Gal(b1-4)]GlcNAc(b1-6)]Gal(b1-4)Glc
# How it was run: as §1
# [18] = molecular target: Fuc(a1-2)Gal(b1-3)[Fuc(a1-4)]GlcNAc(b1-3)[Gal(b1-4)GlcNAc(b1-6)]Gal(b1-4)Glc
# How it was run: as §1
# Fuc(a1-2)Gal(b1-4)Glc = molecular target: Fuc(a1-2)Gal(b1-4)Glc
# How it was run: as §1
# Fuc(a1-2)Gal(b1-4)Glc6S = molecular target: Fuc(a1-2)Gal(b1-4)Glc6S
# How it was run: as §1
# Fuc(a1-2)Gal(b1-4)GlcNAc = molecular target: Fuc(a1-2)Gal(b1-4)GlcNAc
# How it was run: as §1
# [19] = molecular target: Fuc(a1-2)Gal(b1-4)GlcNAc(b1-2)Man
# How it was run: as §1
# [20] = molecular target: Fuc(a1-2)Gal(b1-4)GlcNAc(b1-2)Man(a1-3)[Fuc(a1-2)Gal(b1-4)GlcNAc(b1-2)Man(a1-6)]Man(b1-4)GlcNAc(b1-4)GlcNAc
# How it was run: as §1
# [21] = molecular target: Fuc(a1-2)Gal(b1-4)GlcNAc(b1-2)Man(a1-3)[Fuc(a1-2)Gal(b1-4)GlcNAc(b1-2)Man(a1-6)]Man(b1-4)GlcNAc(b1-4)[Fuc(a1-6)]GlcNAc
# How it was run: as §1
# [22] = molecular target: Fuc(a1-2)Gal(b1-4)GlcNAc(b1-2)[Fuc(a1-2)Gal(b1-4)GlcNAc(b1-4)]Man(a1-3)[Fuc(a1-2)Gal(b1-4)GlcNAc(b1-2)Man(a1-6)]Man(b1-4)GlcNAc(b1-4)GlcNAc
# How it was run: as §1
# [23] = molecular target: Fuc(a1-2)Gal(b1-4)GlcNAc(b1-3)Gal(b1-4)GlcNAc
# How it was run: as §1
# [24] = molecular target: Fuc(a1-2)Gal(b1-4)GlcNAc(b1-3)Gal(b1-4)GlcNAc(b1-2)Man(a1-3)[Fuc(a1-2)Gal(b1-4)GlcNAc(b1-3)Gal(b1-4)GlcNAc(b1-2)Man(a1-6)]Man(b1-4)GlcNAc(b1-4)GlcNAc
# How it was run: as §1
# [25] = molecular target: Fuc(a1-2)Gal(b1-4)GlcNAc(b1-3)Gal(b1-4)GlcNAc(b1-3)Gal(b1-4)GlcNAc
# How it was run: as §1
# [26] = molecular target: Fuc(a1-2)Gal(b1-4)GlcNAc(b1-3)GalNAc
# How it was run: as §1
# [27] = molecular target: Fuc(a1-2)Gal(b1-4)GlcNAc(b1-3)[Fuc(a1-2)Gal(b1-4)GlcNAc(b1-6)]GalNAc
# How it was run: as §1
# [28] = molecular target: Fuc(a1-2)Gal(b1-4)GlcNAc(b1-3)[Fuc(a1-3)[Gal(b1-4)]GlcNAc(b1-6)]Gal(b1-4)Glc
# How it was run: as §1
# [29] = molecular target: Fuc(a1-2)Gal(b1-4)GlcNAc(b1-6)GalNAc
# How it was run: as §1
# [30] = molecular target: Fuc(a1-2)Gal(b1-4)GlcNAc6S
# How it was run: as §1
# [31] = molecular target: Fuc(a1-2)Gal(b1-4)[Fuc(a1-3)]GlcNAc
# How it was run: as §1
binder,measurement,setting,value
B1,glycan array binding signal (z-score),Fuc(a1-2)Gal,-0.058
same,glycan array binding signal (z-score),Fuc(a1-2)Gal(b1-3)GalNAc,-0.542
same,glycan array binding signal (z-score),[1],0.054
same,glycan array binding signal (z-score),[2],-1.42
same,glycan array binding signal (z-score),[3],-0.081
same,glycan array binding signal (z-score),[4],-0.695
same,glycan array binding signal (z-score),[5],-0.701
same,glycan array binding signal (z-score),Fuc(a1-2)Gal(b1-3)GlcNAc,-0.334
same,glycan array binding signal (z-score),[6],0.9
same,glycan array binding signal (z-score),[7],-0.29
same,glycan array binding signal (z-score),[8],-0.909
same,glycan array binding signal (z-score),[9],-0.824
same,glycan array binding signal (z-score),[10],-0.372
same,glycan array binding signal (z-score),[11],-0.564
same,glycan array binding signal (z-score),[12],0.567
same,glycan array binding signal (z-score),[13],0.696
same,glycan array binding signal (z-score),[14],-0.322
same,glycan array binding signal (z-score),[15],-0.663
same,glycan array binding signal (z-score),[16],-0.008
same,glycan array binding signal (z-score),[17],0.774
same,glycan array binding signal (z-score),[18],0.951
same,glycan array binding signal (z-score),Fuc(a1-2)Gal(b1-4)Glc,0.266
same,glycan array binding signal (z-score),Fuc(a1-2)Gal(b1-4)Glc6S,-0.652
same,glycan array binding signal (z-score),Fuc(a1-2)Gal(b1-4)GlcNAc,-0.18
same,glycan array binding signal (z-score),[19],-0.612
same,glycan array binding signal (z-score),[20],0.755
same,glycan array binding signal (z-score),[21],-0.233
same,glycan array binding signal (z-score),[22],0.565
same,glycan array binding signal (z-score),[23],-0.043
same,glycan array binding signal (z-score),[24],2.08
same,glycan array binding signal (z-score),[25],-0.338
same,glycan array binding signal (z-score),[26],0.572
same,glycan array binding signal (z-score),[27],-0.167
same,glycan array binding signal (z-score),[28],-0.465
same,glycan array binding signal (z-score),[29],-0.147
same,glycan array binding signal (z-score),[30],-1.22
same,glycan array binding signal (z-score),[31],-0.508

# Two entries from above, with bars between the fields.
binder | measurement | setting | value
B1 | glycan array binding signal (z-score) | Fuc(a1-2)Gal(b1-3)GalNAc | -0.542
same | glycan array binding signal (z-score) | [19] | -0.612

# From the supplement of paper PMC8728848
